The results in this text go back to patent publication US20210324080A1.

Amino acid sequences for entries named in this document (tags omitted). Residues count along the entry.
UniProt P16410, residues 36-161: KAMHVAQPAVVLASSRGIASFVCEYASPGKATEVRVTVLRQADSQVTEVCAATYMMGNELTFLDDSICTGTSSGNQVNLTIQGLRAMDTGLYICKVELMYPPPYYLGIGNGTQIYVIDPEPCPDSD

Assay [1] concerns the target CTLA-4-hFc (immunogen A; hFc-labeled CTLA-4 extracellular domain protein) (human) (UniProt P16410). Description: competition ELISA: CTLA-4-hFc coated, antibody titrated, blocked ligand biotin-labeled B7.1-hFc, HRP-avidin, A450, inhibition (%).
The target is the same in assay [2]. Description: competition ELISA: CTLA-4-hFc coated, antibody titrated, blocked ligand biotin-labeled B7.2-hFc, HRP-avidin, A450, inhibition (%). (In general: ELISA stands for enzyme-linked immunosorbent assay.)
The target is the same in assay [3]. Description: receptor-ligand blocking assay: CTLA-4 protein, antibody titrated, blocked ligand B7.1, inhibition (%).

Results are given in words; binding and its absence hold for the method and conditions named. Some entries that bind do so weakly or less than the wild type.

B1: 31C12F3 (chimeric antibody purified from hybridoma supernatant) (antibody, V domains shown)
VH: QVQLVESGGGVVQPGRSLILSCAASGFTFSSYGMHWVRQAPGKGLEWVAVVWYDGSNKYYADSVKGRFTISRDNSKNTLYLQMSSLRAEDTAVYYCARGGIVVPGLFEYWGQGSLVTVSS
VL: DIQMTQSPSSLSASVGDRVAITCRTSQSISNLLNWYQQKPGKAPELLIYAPSSFQSGVPSRFRGSGSGTDFTLTISSLQPEDFATYYCQQSYSTPFTFGPGTKVDIK
As to B1, the binding result in assay [1] and in assay [2] was “binds” throughout.

B2: 92C8B6 (chimeric antibody purified from hybridoma supernatant) (antibody, V domains shown)
VH: QVQLVESGGGVVQPGRSLRLSCAASGFTFSNFGMHWVRQAPGKGLEWVAVIWYDGSNKYYADSVKGRFTISRDNSKNTLFLQMNGLRAEDTAVYYCAKGGILMAGTLDYWGQGTLVTVSS
VL: DIQMTQSPSSLSASVGDRVTITCRASQSVSTYLNWYQQKPGKAPKLLIYAASSFQSGVPSRFSGSGSGTDFTLTISSLQPEDFATYFCQQSYSTPFTFGPGTKVDIK
For B2, the binding result in assay [1] and in assay [2] was “binds” throughout.

B3: 92C8B6 fully human CTLA-4 antibody (human IgG1, kappa) (antibody, V domains shown)
VH: QVQLVESGGGVVQPGRSLRLSCAASGFTFSNFGMHWVRQAPGKGLEWVAVIWYDGSNKYYADSVKGRFTISRDNSKNTLFLQMNGLRAEDTAVYYCAKGGILMAGTLDYWGQGTLVTVSS
VL: DIQMTQSPSSLSASVGDRVTITCRASQSVSTYLNWYQQKPGKAPKLLIYAASSFQSGVPSRFSGSGSGTDFTLTISSLQPEDFATYFCQQSYSTPFTFGPGTKVDIK
Consider B3, for which the binding entry in assay [3] was “binds”.

B4: 31C12F3 fully human CTLA-4 antibody (human IgG1, kappa) (antibody, V domains shown)
VH: QVQLVESGGGVVQPGRSLILSCAASGFTFSSYGMHWVRQAPGKGLEWVAVVWYDGSNKYYADSVKGRFTISRDNSKNTLYLQMSSLRAEDTAVYYCARGGIVVPGLFEYWGQGSLVTVSS
VL: DIQMTQSPSSLSASVGDRVAITCRTSQSISNLLNWYQQKPGKAPELLIYAPSSFQSGVPSRFRGSGSGTDFTLTISSLQPEDFATYYCQQSYSTPFTFGPGTKVDIK
Consider B4, for which, in assay [3], the binding result is given as “binds”.

B5: 97A8D1 (chimeric antibody purified from hybridoma supernatant) (antibody, V domains shown)
VH: QVQLVESGGGVVQPGRSLRLSCVASGFTFNNYGMNWVRQAPGKGLEWVAVIWYGGRNKFYADSVKGRFTISRDNSKNTLYLEMNSLRAEDTAVYYCARADWGGWFDPWGQGTLVTVSS
VL: EIVLTQSPGTLSLSPGERATLSCRASQSVSSTYLAWYQQKPGQAPRLLIHGAFSRATGIPDRFSGSGSGPDFTLTISRLEPEDFAVYYCQQYGTSPFTFGPGTKVDIK
B5: the binding result in assay [1] and in assay [2] was “binds” each time.

B6: 97A8D1 fully human CTLA-4 antibody (human IgG1, kappa) (antibody, V domains shown)
VH: QVQLVESGGGVVQPGRSLRLSCVASGFTFNNYGMNWVRQAPGKGLEWVAVIWYGGRNKFYADSVKGRFTISRDNSKNTLYLEMNSLRAEDTAVYYCARADWGGWFDPWGQGTLVTVSS
VL: EIVLTQSPGTLSLSPGERATLSCRASQSVSSTYLAWYQQKPGQAPRLLIHGAFSRATGIPDRFSGSGSGPDFTLTISRLEPEDFAVYYCQQYGTSPFTFGPGTKVDIK
As to B6, the binding entry in assay [3] is listed as “binds”.
